From PubChem BioAssay AID504467 (National Center for Advancing Translational Sciences (NCATS), 2011)
Among all 330,000 compounds or so, about 7,700 (2.3%) were called active. Inconclusive results, whose numbers are uncertain, are shown with a selection of clear calls. Calls follow the shape of the dose curve; as a rule, active = well fitted inhibition curve with a large enough effect; inconclusive = small, poorly fitted or top-dose-only effect, or effect the other way; inactive = flat fitted curve, though single readings scatter. Where the call is inconclusive, the potency comes from a doubtful curve fit.

experiment: qHTS screen for small molecules that inhibit ELG1-dependent DNA repair in human embryonic kidney (HEK293T) cells expressing luciferase-tagged ELG1; settings: HEK293T ELG1-luciferase reporter, luminescence, 16 h, DNA damage induced by 5-fluorouridine; activity change, negative = inhibition: at 46.1 µM (top of the series); also: nearly all actives have a fitted effect of over 55% in size
Procedure, shortened: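 HEK293T cells expressing luciferase-tagged ELG1 (2,000/well) received 5-Fluorouridine plus compound or DMSO for 16 hr at 37 °C. Luciferase was read by ONE-Glo luminescence after 30 min at room temperature.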
% is scaled to controls: 0 for no effect and ±100 for the full control effect; potency is read from the fitted curve at half-maximal effect.

SMILES | Potency | activity change, negative = inhibition
Cn1cnnc1SCc1ccc(C(=O)N/N=C/c2cccs2)cc1 | inconclusive: 23.1 µM [activator, partial curve] | 
c1cc2c3c(cccc3c1)NC1(CCCCC1)N2 |  | inactive: -2.48%
CCCOc1cccc(C(=O)NCCNC(=O)c2ccc(C)nc2)c1 |  | inactive: 0.463%
Cc1cc(S(=O)(=O)NCc2ccccc2)ccc1OCC(=O)NCc1ccccn1 |  | inactive: -3.73%
COc1cccc(NC(=O)c2ccccc2NC(=O)c2ccncc2)c1 | inconclusive: 4.11 µM [inhibitor, single point] | 
CCCN(CC(=O)NC(=O)NC1CCCCC1)CC(=O)Nc1cc(Cl)ccc1Cl | inconclusive: 11.2 µM [inhibitor, single point] | 
Cc1ccc(N2CC(C(=O)Nc3ccc(N4CCOCC4)cc3)CC2=O)cc1C (stereo unspecified) |  | inactive: 21%
CN(CC(=O)Nc1ccccc1Cl)C(=O)c1ccccc1Sc1ccccc1C#N | inconclusive: 20.6 µM [inhibitor, single point] | 
S=c1[nH]nc(-c2ccc(Cl)cc2)n1/N=C/c1cccs1 |  | inactive: 0%
CCSc1nsc(NC(=O)Nc2ccccc2OC)n1 | inconclusive: 23.1 µM [activator, single point] | 
CCCn1nnc(NC(=O)Cc2ccc(Cl)cc2)n1 | inconclusive: 18.4 µM [activator, partial curve, poor fit] | 
COn1c(-c2ccccc2)nc2c1CCc1nonc1-2 | inconclusive: 0.517 µM [activator, full curve] | 
COc1ccc(C(=O)c2c[nH]c(C(=O)NCc3cccs3)c2)cc1 | inconclusive: 0.092 µM [inhibitor, partial curve, poor fit] | 
CCOc1ccc(OCCSc2nc(N)cc(=O)[nH]2)cc1 | inconclusive: 29.1 µM [inhibitor, single point] | 
CCOc1cc(NC(=S)NCCOC)c(OCC)cc1NC(=O)c1ccco1 | inconclusive: 23.1 µM [inhibitor, partial curve, poor fit] | 
COc1c(O)cc2c(c1O)C(=O)CC(c1ccccc1)O2 (stereo unspecified) | inconclusive: 25.9 µM [activator, partial curve] | 
COc1cc(C#Cc2ccc3cc(CCCO)oc(=O)c3c2)cc(OC)c1 | inconclusive: 10.3 µM [activator, partial curve, poor fit] | 
CCn1c(SCC(=O)Nc2ccc3c(c2)OCO3)nnc1-c1cnccn1 |  | inactive: -4.05%
CCc1ccc2nc(N(CCCN(C)C)C(=O)c3ccc(S(=O)(=O)N(C)C4CCCCC4)cc3)sc2c1 |  | inactive: -8.05%
CCOC(=O)NC(=S)Nc1ccc(OC)cc1 | inconclusive: 20.6 µM [activator, partial curve] | 
CN(C)/C=N/C(=S)Nc1ccccc1 | inconclusive: 29.1 µM [activator, single point] | 
Cc1nnc(SCC(=O)NNC(=O)c2ccco2)n1-c1ccccc1 | inconclusive: 6.51 µM [inhibitor, single point] | 
COc1ccc(/C=C/C(=O)NCc2cn(C)nc2C)cc1COc1ccc(Br)cc1 | inconclusive: 16.4 µM [inhibitor, partial curve] | 
Cc1cc[n+](Cc2ccccc2)c(N)c1 |  | inactive: 16.2%

Ordered by SMILES length (falling): some entries from above
SMILES | Potency | activity change, negative = inhibition
CCCN(CC(=O)NC(=O)NC1CCCCC1)CC(=O)Nc1cc(Cl)ccc1Cl | inconclusive: 11.2 µM [inhibitor, single point] | 
COc1ccc(C(=O)c2c[nH]c(C(=O)NCc3cccs3)c2)cc1 | inconclusive: 0.092 µM [inhibitor, partial curve, poor fit] | 
S=c1[nH]nc(-c2ccc(Cl)cc2)n1/N=C/c1cccs1 |  | inactive: 0%
CCOC(=O)NC(=S)Nc1ccc(OC)cc1 | inconclusive: 20.6 µM [activator, partial curve] | 

Further compounds

SMILES | Potency | activity change, negative = inhibition
CCS(=O)(=O)c1ccc2oc(Nc3ccccc3Br)nc2c1 | inconclusive: 10.3 µM [activator, partial curve] | 
CCn1c(=O)n(CC)c2cc(N3CCCC3)c(NC(=O)c3ccccc3OC)cc21 | inconclusive: 29.1 µM [inhibitor, single point] | 
C#CCOCCOCCOCCNc1nc(N2CCN(C(=O)CCCCCCCCCCNC(=O)[C@H](CCCCN)n3cc(C[C@@H](C)CC)nn3)CC2)nc(N2CCN(C(=O)CCCCCCCCCCNC(=O)[C@H](CCCN=C(N)N)n3cc(C[C@@H](C)CC)nn3)CC2)n1 | inconclusive: 35.5 µM [inhibitor, single point] | 
N#Cc1c(SCC(=O)Nc2ccc(Cl)cc2Cl)sc2c(O)cc(=O)[nH]c12 | inconclusive: 20.6 µM [activator, single point] | 
Cc1cccc(-c2nnc3sc(-c4ccccc4C)nn23)c1 | inconclusive: 17.8 µM [inhibitor, single point] | 
O=C(NCc1ccco1)c1nn2cccnc2c1Cl | inconclusive: 18.3 µM [activator, single point] | 
O=C(NCC1CCCO1)c1cc2ccccc2oc1=O (stereo unspecified) | inconclusive: 18.3 µM [activator, single point] | 
O=C1c2ccccc2C(Nc2ccc3c(c2)OCCO3)N1c1ccccn1 (stereo unspecified) | inconclusive: 14.6 µM [activator, single point] | 
CC(=O)N(C)c1ccc(NC(=S)NCC(C)C)cc1 | inconclusive: 29.1 µM [activator, single point] | 
CCCS(=O)(=O)c1c(S(=O)(=O)CCC)c2c(C)cccn2c1C(=O)N/N=C/c1cc(O)cc(O)c1 |  | inactive: -15%
CCN(c1ccc(NC(=O)COC(=O)CCc2cc(OC)c(OC)c(OC)c2)cc1)C(C)C | inconclusive: 23.1 µM [activator, partial curve, poor fit] | 
CC(=O)C(C(C)=O)C(NC(=O)c1cccnc1)(C(F)(F)F)C(F)(F)F |  | inactive: 10.4%
CCC(C)(C)NC(=O)C(c1ccc(C)cc1)N(CCN1CCOCC1)C(=O)CNC(=O)c1cccs1 (stereo unspecified) |  | inactive: 7.66%
COc1ccc(S(=O)(=O)NCc2ccccn2)cc1OC |  | inactive: 20.6%
CC/C(=N\O)c1c(O)c2c(n(-c3ccccc3)c1=O)CCCC2 |  | inactive: 1.12%
O=C(CN1C(=O)C2C3C=CC(C4CC34)C2C1=O)Oc1ccccc1 (stereo unspecified) |  | inactive: 17.8%
NC(=O)c1sc2nc3c(c(-c4cccs4)c2c1N)CCCCC3 | active: 0.82 µM | 
CCN(CC)CCN1C(=O)C(=O)/C(=C(/O)c2ccc(OC)c(OC)c2)C1c1ccccn1 (stereo unspecified) | inconclusive: 18.4 µM [activator, single point] | 
CCOC(=O)C1CCN(C(=O)CCCn2nc(C)c3c(C)n(-c4ccc(C)cc4)nc3c2=O)CC1 |  | inactive: -5.31%
O=C(COc1ccc2c3c(c(=O)oc2c1)CCC3)NCCN1CCOCC1 | inconclusive: 23.1 µM [activator, single point] | 
O=C(c1ccc2c(=O)n(-c3ccccc3)c(=S)[nH]c2c1)N1CCCCC1 | active: 3.26 µM | 
Cc1nnc2ccc(-c3ccc(NS(=O)(=O)c4ccc(Cl)s4)cc3)nn12 | inconclusive: 29.1 µM [activator, single point] | 
COc1ccc(NC(=O)C(C)N2c3cccc4cccc(c34)S2(=O)=O)cc1OC (stereo unspecified) | active: 7.31 µM | 
O=C(COC(=O)/C=C/c1ccc(S(=O)(=O)N2CCOCC2)cc1)Nc1ccccc1F |  | inactive: -0.41%

SMILES | Potency | activity change, negative = inhibition
Cc1ccc(OCC(=O)Nc2ccc(N3CCCC3)cc2)cc1C | inconclusive: 16.4 µM [inhibitor, single point] | 
O=C(C1CCCN(S(=O)(=O)c2cccc3nsnc23)C1)N1CCCCCC1 (stereo unspecified) |  | inactive: -21%
Cc1cnc(C(=O)OCC(=O)c2csc(N3CCCCC3)n2)cn1 | inconclusive: 18.4 µM [activator, single point] | 
COc1ccc(-c2nc3ccccc3o2)cc1NC(=O)CSc1ccc(Cl)cc1 | inconclusive: 20.6 µM [activator, single point] | 
CN(C(=O)CSc1nnc(-c2cccs2)n1C1CC1)C1CCS(=O)(=O)C1 (stereo unspecified) |  | inactive: 0%
COC(=O)c1c(N2C(=O)CC(Sc3ncccc3C(=O)O)C2=O)sc(C)c1C (stereo unspecified) | inconclusive: 0.231 µM [inhibitor, full curve, poor fit] | 
Cc1cc2cc3c(cc2nc1SCC(=O)Nc1ccccc1)CCC3 |  | inactive: -2.53%
CCc1ccccc1NC(=O)COC(=O)c1cccs1 |  | inactive: -7.1%
Clc1cccc(CNc2nnnn2-c2ccccc2)c1 | inconclusive: 7.31 µM [inhibitor, partial curve, poor fit] | 
Cn1c(=O)cc(C(=O)N/N=C/c2ccc(Cl)cc2)[nH]c1=O |  | inactive: 2.47%
COCCCNCCOCCSc1ccc(Cl)cc1 |  | inactive: 4.12%
COc1ccc(Cn2nnnc2CN2CCC(c3nc4ccccc4s3)CC2)cc1 | inconclusive: 12.6 µM [inhibitor, partial curve, poor fit] | 
C=CCSc1nnc(NC(=O)C2CSC3(C)CCC(=O)N23)s1 (stereo unspecified) | inconclusive: 2.31 µM [inhibitor, partial curve] | 
COc1ccc(/C=N/NC(=O)c2nc(-c3ccccc3)cc(-c3ccccc3)n2)cc1OC | active: 4.11 µM | 
CN(Cc1ccccc1)c1nc(-c2cccc([N+](=O)[O-])c2)nc2ccccc12 | inconclusive: 13 µM [inhibitor, partial curve] | 
COc1ccc(Sc2cc(C(F)(F)F)nc(-c3ccccn3)n2)cc1 | inconclusive: 29.1 µM [inhibitor, single point] | 
CCCSc1nc2c(c(=O)n(C)c(=O)n2C)n1Cc1ccc(C)cc1 | inconclusive: 29.1 µM [inhibitor, partial curve, poor fit] | 
Cc1cc(C)c2nc(N(CCCN(C)C)C(=O)c3ccc(S(=O)(=O)N4CC(C)OC(C)C4)cc3)sc2c1 (stereo unspecified) |  | inactive: 7.81%
COc1ccc(S(=O)(=O)N2CCC3(CC2)OCCN3S(=O)(=O)c2ccccc2)cc1OC | inconclusive: 35.5 µM [inhibitor, single point] | 
c1ccc(-c2ccc3[nH]ccc3c2)cc1 | inconclusive: 14.6 µM [activator, partial curve] | 
CCc1ccc(N2C(=O)Cc3c2nc(N)c(C#N)c3N)cc1 | inconclusive: 29.1 µM [activator, single point] | 
COc1cc(-c2cc(C(=O)NCc3ccco3)c3ccccc3n2)cc(OC)c1OC | active: 13 µM | 
NC(=O)c1nsc(C(=O)N(c2ccccc2)C(C(=O)NC2CCCCC2)c2ccc(O)cc2)c1N (stereo unspecified) |  | inactive: -7.55%
